{"source": "patent US9675615B2", "about": "“2,3-dihydroquinazolin-4(1H)-one derivatives for use in the treatment of viral infections” (priority 2012, dated 2017)", "origin": "cited, not measured here", "test_system": "Ebolavirus", "settings": "cited from earlier work", "note": "At least one structure is not confirmed: it was looked up by name or label, or the drawing left a doubt."}
{"smiles": "O=c1cc(N2CCOCC2)oc2c(-c3ccccc3)cccc12", "note": "[LY294002]", "values": [{"measurement": "effect on Ebolavirus infectivity", "result": "sequestration of virus to early endosomes and loss of infectivity"}]}
